This is one part of the list.
How the values were obtained:
Assay in all cases: log2 fold change, soluble protein after heating vs DMSO (PISA); higher = thermal stabilisation; K562 lysate, 10 uM; active = over 0.2 and 3.5 SD of the protein, either way, in both replicates (recomputed)
alvocidib = compound: CN1CC[C@H](c2c(O)cc(O)c3c(=O)cc(-c4ccccc4Cl)oc23)[C@H](O)C1 [alvocidib]
In short: (§1)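 The values are log-two fold changes in thermal stability compared with solvent controls and come from duplicates. They were obtained by TMTpro 16plex LC-MS/MS, with channel sums equalised, on the supernatant after 21,000xg for 90 min. That supernatant came from crude K562 extract at 1 mg/mL protein treated with 10 μM compound for 30 min, heated for 3 min across 48°C-58°C, pooled and brought to 0.5% NP-40 at 4°C.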

Chains of the proteins cited; added tags and fusions are not shown. Lines headed by an entry give the natural chain unless they say otherwise; changes in a name come on top.
UniProt O43909: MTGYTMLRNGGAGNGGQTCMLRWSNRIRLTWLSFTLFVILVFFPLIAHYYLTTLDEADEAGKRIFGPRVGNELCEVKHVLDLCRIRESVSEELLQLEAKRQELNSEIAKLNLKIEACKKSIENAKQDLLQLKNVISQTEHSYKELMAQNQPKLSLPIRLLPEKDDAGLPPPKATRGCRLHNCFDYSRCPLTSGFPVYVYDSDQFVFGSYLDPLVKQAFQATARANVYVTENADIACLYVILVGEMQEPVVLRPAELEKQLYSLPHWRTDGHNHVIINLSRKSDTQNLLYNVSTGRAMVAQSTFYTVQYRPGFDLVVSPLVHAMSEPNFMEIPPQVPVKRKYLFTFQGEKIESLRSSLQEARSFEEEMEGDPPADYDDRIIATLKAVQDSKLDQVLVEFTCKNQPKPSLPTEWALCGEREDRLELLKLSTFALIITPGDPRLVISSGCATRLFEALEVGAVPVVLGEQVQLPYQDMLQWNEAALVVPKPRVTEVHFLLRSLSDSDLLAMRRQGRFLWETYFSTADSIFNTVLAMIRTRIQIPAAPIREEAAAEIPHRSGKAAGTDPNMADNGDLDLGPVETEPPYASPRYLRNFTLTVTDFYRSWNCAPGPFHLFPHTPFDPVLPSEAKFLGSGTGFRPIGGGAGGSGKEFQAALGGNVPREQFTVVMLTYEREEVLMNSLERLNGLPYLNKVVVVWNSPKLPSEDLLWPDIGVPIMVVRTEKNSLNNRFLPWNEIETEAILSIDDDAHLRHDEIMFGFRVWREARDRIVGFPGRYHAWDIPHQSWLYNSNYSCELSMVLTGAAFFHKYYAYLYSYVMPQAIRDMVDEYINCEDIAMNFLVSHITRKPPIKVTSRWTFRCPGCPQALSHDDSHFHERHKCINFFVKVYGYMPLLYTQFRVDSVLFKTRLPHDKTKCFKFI
UniProt Q9BYI3: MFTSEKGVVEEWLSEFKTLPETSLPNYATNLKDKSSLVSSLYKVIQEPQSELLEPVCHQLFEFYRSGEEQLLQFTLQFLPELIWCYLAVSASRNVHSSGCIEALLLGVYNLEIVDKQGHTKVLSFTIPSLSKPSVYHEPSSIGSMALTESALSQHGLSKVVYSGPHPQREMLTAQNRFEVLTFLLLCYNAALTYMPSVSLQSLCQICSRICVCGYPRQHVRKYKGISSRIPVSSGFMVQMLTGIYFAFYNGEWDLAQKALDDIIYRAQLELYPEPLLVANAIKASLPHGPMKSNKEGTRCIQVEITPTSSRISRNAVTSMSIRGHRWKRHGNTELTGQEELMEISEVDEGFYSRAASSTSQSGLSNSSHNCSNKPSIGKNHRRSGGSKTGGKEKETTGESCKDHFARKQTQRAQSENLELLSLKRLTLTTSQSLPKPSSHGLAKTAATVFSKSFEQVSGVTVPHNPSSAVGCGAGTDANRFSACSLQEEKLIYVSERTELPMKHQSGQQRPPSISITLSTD
UniProt Q9Y624, whole entry, looked up, stated change not applied: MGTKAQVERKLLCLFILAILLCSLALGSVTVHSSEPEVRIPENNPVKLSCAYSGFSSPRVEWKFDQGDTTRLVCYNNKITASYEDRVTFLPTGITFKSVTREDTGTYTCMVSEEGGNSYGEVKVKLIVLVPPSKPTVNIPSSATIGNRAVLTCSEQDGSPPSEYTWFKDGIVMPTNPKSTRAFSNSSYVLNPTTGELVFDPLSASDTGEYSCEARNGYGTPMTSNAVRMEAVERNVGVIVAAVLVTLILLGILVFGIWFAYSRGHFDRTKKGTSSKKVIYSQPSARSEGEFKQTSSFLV
UniProt Q9Y3B2, whole entry, looked up: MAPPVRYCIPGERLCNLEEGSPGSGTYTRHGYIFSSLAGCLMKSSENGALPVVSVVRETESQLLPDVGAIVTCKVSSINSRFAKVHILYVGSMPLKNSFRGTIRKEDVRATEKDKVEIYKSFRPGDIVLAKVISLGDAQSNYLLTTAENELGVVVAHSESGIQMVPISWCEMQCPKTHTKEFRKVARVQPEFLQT
UniProt Q9H8W3: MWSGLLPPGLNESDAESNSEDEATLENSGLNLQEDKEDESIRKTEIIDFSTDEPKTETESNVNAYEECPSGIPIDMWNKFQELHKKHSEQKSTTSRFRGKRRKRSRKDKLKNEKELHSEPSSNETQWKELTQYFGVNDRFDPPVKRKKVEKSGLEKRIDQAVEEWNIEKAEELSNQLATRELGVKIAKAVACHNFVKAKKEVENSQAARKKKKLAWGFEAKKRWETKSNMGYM
UniProt Q9UQ84: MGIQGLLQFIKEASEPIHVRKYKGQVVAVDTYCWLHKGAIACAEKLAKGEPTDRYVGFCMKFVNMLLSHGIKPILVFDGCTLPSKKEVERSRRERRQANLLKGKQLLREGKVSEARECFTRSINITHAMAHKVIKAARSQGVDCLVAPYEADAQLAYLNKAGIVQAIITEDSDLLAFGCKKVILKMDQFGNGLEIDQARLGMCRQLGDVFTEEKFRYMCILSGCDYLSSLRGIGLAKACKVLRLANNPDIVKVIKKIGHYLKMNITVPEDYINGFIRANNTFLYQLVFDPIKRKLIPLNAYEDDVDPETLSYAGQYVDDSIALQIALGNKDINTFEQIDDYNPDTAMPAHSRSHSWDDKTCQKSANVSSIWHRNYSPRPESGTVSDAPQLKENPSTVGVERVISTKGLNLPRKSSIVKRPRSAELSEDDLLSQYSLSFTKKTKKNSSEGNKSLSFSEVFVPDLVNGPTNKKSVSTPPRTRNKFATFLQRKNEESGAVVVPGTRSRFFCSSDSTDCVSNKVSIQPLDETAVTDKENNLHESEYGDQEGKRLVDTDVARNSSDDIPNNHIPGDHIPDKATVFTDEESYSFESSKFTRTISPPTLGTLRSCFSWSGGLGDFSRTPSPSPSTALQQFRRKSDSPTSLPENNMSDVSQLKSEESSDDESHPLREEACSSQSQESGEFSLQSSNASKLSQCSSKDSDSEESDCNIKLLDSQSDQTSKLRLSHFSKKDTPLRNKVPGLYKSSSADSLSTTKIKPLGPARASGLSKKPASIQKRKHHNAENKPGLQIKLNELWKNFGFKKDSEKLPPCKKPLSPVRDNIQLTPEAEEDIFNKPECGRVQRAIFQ
UniProt Q9H0Q0: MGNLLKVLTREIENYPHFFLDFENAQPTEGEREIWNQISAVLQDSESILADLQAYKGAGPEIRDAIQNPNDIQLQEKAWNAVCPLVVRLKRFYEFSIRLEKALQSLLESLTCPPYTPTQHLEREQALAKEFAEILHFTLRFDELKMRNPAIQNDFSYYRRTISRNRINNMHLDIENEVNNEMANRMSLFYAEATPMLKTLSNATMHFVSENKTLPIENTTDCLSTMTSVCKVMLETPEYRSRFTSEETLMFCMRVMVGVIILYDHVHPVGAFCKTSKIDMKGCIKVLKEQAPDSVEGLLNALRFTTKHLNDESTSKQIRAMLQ
UniProt Q8N0U4: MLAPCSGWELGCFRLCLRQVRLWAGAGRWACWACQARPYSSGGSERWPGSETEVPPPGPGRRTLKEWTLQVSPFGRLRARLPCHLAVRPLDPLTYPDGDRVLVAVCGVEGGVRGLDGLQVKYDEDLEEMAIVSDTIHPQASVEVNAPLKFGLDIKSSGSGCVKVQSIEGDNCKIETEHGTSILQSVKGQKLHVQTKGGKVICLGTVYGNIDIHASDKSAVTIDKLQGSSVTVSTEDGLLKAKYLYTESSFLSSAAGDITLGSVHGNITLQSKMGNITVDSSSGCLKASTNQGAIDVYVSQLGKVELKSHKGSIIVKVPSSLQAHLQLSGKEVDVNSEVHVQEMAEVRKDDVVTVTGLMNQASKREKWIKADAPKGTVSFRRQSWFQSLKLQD
UniProt Q96B26, whole entry, looked up: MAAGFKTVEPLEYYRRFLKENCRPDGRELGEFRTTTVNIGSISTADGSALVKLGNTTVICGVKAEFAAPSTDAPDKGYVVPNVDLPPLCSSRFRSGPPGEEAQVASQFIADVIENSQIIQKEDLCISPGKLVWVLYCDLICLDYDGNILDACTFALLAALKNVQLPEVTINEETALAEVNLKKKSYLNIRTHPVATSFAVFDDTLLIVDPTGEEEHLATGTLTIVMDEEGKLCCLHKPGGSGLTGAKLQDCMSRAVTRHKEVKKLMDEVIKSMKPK

Tubastatin A = compound: CN1CCc2c(c3ccccc3n2Cc2ccc(C(=O)NO)cc2)C1 [Tubastatin A]
In short: as §1

[1] = compound: CNC(=O)C1=CC=CC=C1NC2=NC(=NC=C2Cl)NC3=C(C=C(C=C3)N4CCOCC4)OC
In short: as §1

defactinib = compound: CNC(=O)c1ccc(Nc2ncc(C(F)(F)F)c(NCc3nccnc3N(C)S(C)(=O)=O)n2)cc1 [defactinib]
In short: as §1

[2] = compound: CNc1nc(-c2ccc3c(N)n[nH]c3c2)cc(N2C[C@@H](C(=O)NC3CCCCC3)CC[C@H]2C)n1
In short: as §1

[3] = compound: COc1cc2nc(-c3cc(F)ccc3O)nc(N[C@@H]3CNC[C@H]3C(C)(C)O)c2cc1OC
In short: as §1

lapatinib = compound: CS(=O)(=O)CCNCc1ccc(-c2ccc3ncnc(Nc4ccc(OCc5cccc(F)c5)c(Cl)c4)c3c2)o1 [lapatinib]
In short: as §1

crizotinib = compound: C[C@@H](Oc1cc(-c2cnn(C3CCNCC3)c2)cnc1N)c1c(Cl)ccc(F)c1Cl [crizotinib]
In short: as §1

[4] = compound: C[C@H](C1=CC=C(C=C1)C(=O)NC2=C3C=CNC3=NC=C2)N
In short: as §1

duvelisib = compound: C[C@H](Nc1ncnc2nc[nH]c12)c1cc2cccc(Cl)c2c(=O)n1-c1ccccc1 [duvelisib]
In short: as §1

gandotinib = compound: Cc1cc(Nc2cc(CN3CCOCC3)c3nc(C)c(Cc4ccc(Cl)cc4F)n3n2)n[nH]1 [gandotinib]
In short: as §1

doramapimod = compound: Cc1ccc(-n2nc(C(C)(C)C)cc2NC(=O)Nc2ccc(OCCN3CCOCC3)c3ccccc23)cc1 [doramapimod]
In short: as §1

[5] = compound: Cc1cccc(CC(=O)N2CCc3c2ccc(-c2cn(C)c4ncnc(N)c24)c3F)n1
In short: as §1

encorafenib = compound: COC(=O)N[C@@H](C)CNc1nccc(-c2cn(C(C)C)nc2-c2cc(Cl)cc(NS(C)(=O)=O)c2F)n1 [encorafenib]
In short: as §1

[6] = compound: COC(=O)[C@H](CCSC)NC(=O)C1=C(C=C(C=C1)NC[C@H](CS)N)C2=CC=CC=C2
In short: as §1

pictilisib = compound: CS(=O)(=O)N1CCN(Cc2cc3nc(-c4cccc5[nH]ncc45)nc(N4CCOCC4)c3s2)CC1 [pictilisib]
In short: as §1

tozasertib = compound: Cc1cc(Nc2cc(N3CCN(C)CC3)nc(Sc3ccc(NC(=O)C4CC4)cc3)n2)n[nH]1 [tozasertib]
In short: as §1

bafetinib = compound: Cc1ccc(NC(=O)c2ccc(CN3CC[C@H](N(C)C)C3)c(C(F)(F)F)c2)cc1Nc1nccc(-c2cncnc2)n1 [bafetinib]
In short: as §1

alisertib = compound: COc1cc(Nc2ncc3c(n2)-c2ccc(Cl)cc2C(c2c(F)cccc2OC)=NC3)ccc1C(=O)O [alisertib]
In short: as §1

gefitinib = compound: COc1cc2ncnc(Nc3ccc(F)c(Cl)c3)c2cc1OCCCN1CCOCC1 [gefitinib]
In short: as §1

Measured: log2 fold change

EXTL3 (UniProt O43909)
inactive: alvocidib -0.096 | Tubastatin A 0.035 | [1] -0.105 | defactinib -0.182 | [2] -0.03 | [3] -0.073 | lapatinib -0.264 | crizotinib -0.07 | [4] 0.035 | duvelisib 0.067 | gandotinib 0.031 | doramapimod 0.009 | [5] 0.089

EWSR1 (UniProt H7BY36)
inactive: alvocidib 0.206 | Tubastatin A 0.179 | defactinib 0.14 | [2] 0.037 | encorafenib 0.063 | [6] -0.061 | pictilisib 0.071 | crizotinib -0.042 | [4] 0.07 | duvelisib -0.011 | gandotinib -0.167 | tozasertib 0.01 | doramapimod -0.066 | bafetinib 0.293 | [5] 0.019

FAM126A (UniProt Q9BYI3)
inactive: alvocidib -0.056 | Tubastatin A -0.098 | [1] 0.11 | defactinib -0.072 | [2] -0.073 | alisertib -0.098 | [3] 0.097 | gefitinib 0.002 | lapatinib -0.17 | pictilisib -0.005 | crizotinib -0.059 | [4] 0.043 | duvelisib 0.092 | gandotinib -0.03 | doramapimod -0.041 | bafetinib -0.012 | [5] -0.01

F11R (UniProt Q9Y624)
inactive: alvocidib -0.054 | Tubastatin A 0.043 | [1] 0.027 | defactinib 0.014 | [2] -0.01 | encorafenib -0.018 | [6] -0.038 | alisertib -0.003 | [3] 0.029 | gefitinib 0.012 | lapatinib -0.005 | pictilisib -0.016 | crizotinib 0.045 | [4] -0.143 | duvelisib 0.013 | gandotinib 0.073 | tozasertib -0.014 | doramapimod -0.035 | bafetinib -0.003 | [5] 0.016

EXOSC1 (UniProt Q9Y3B2)
inactive: alvocidib 0.064 | Tubastatin A -0.043 | [1] -0.027 | defactinib -0.028 | [2] 0.01 | encorafenib 0 | [6] 0.066 | alisertib -0.031 | [3] -0.016 | gefitinib 0.017 | lapatinib 0.019 | pictilisib -0.023 | crizotinib -0.015 | [4] 0.165 | duvelisib -0.064 | gandotinib -0.028 | tozasertib -0.019 | doramapimod -0.054 | bafetinib -0.032 | [5] -0.011

FAM204A (UniProt Q9H8W3)
inactive: alvocidib -0.139 | Tubastatin A -0.036 | [1] 0.018 | defactinib 0.146 | crizotinib -0.053 | [4] 0.412 | gandotinib 0.045 | doramapimod 0.154 | [5] -0.077

Two consecutive records out of the list so far, for reference:
EXOSC1 (UniProt Q9Y3B2)
inactive: alvocidib 0.064 | Tubastatin A -0.043 | [1] -0.027 | defactinib -0.028 | [2] 0.01 | encorafenib 0 | [6] 0.066 | alisertib -0.031 | [3] -0.016 | gefitinib 0.017 | lapatinib 0.019 | pictilisib -0.023 | crizotinib -0.015 | [4] 0.165 | duvelisib -0.064 | gandotinib -0.028 | tozasertib -0.019 | doramapimod -0.054 | bafetinib -0.032 | [5] -0.011

FAM204A (UniProt Q9H8W3)
inactive: alvocidib -0.139 | Tubastatin A -0.036 | [1] 0.018 | defactinib 0.146 | crizotinib -0.053 | [4] 0.412 | gandotinib 0.045 | doramapimod 0.154 | [5] -0.077

(list continues)

EXO1 (UniProt Q9UQ84)
inactive: alvocidib -0.042 | Tubastatin A -0.144 | [1] 0.33 | defactinib 0.023 | alisertib -0.087 | [3] -0.033 | gefitinib -0.063 | lapatinib 0.054 | crizotinib 0.041 | [4] -0.13 | gandotinib 0.238 | doramapimod -0.056 | [5] 0.101

FAM49A (UniProt Q9H0Q0)
inactive: alvocidib -0.068 | Tubastatin A -0.404 | [1] 0.031 | defactinib -0.092 | encorafenib -0.056 | [6] 0.032 | alisertib -0.171 | [3] 0.04 | gefitinib -0.031 | lapatinib -0.058 | pictilisib -0.444 | crizotinib -0.13 | [4] 0.065 | gandotinib -0.126 | tozasertib -0.027 | doramapimod -0.088 | bafetinib 0.087 | [5] 0.137

FAM185A (UniProt Q8N0U4)
inactive: alvocidib 0.012 | Tubastatin A -0.061 | [1] 0.145 | defactinib -0.493 | [2] 0.07 | [3] 0.033 | lapatinib -0.038 | pictilisib -0.047 | crizotinib 0.031 | [4] -0.058 | duvelisib -0.079 | gandotinib 0.019 | doramapimod 0.116 | bafetinib 0.014 | [5] -0.014

EXOSC8 (UniProt Q96B26)
inactive: alvocidib 0.049 | Tubastatin A -0.049 | [1] -0.01 | defactinib 0.034 | [2] -0.059 | encorafenib 0.018 | [6] 0 | alisertib 0.036 | [3] 0.015 | gefitinib 0 | lapatinib 0.02 | pictilisib -0.006 | crizotinib -0.003 | [4] -0.041 | duvelisib 0.045 | gandotinib 0.023 | tozasertib 0.002 | doramapimod -0.005 | bafetinib 0.061 | [5] -0.048

— the supplement of paper PMC10849652
